Laboratory results published in PubChem BioAssay AID2551 (National Center for Advancing Translational Sciences (NCATS), 2010).
In all, about 310,000 compounds went through this assay and about 17,000 (5.5%) were called active. This list was built around the results that the source calls inconclusive (neither active nor inactive); the mix of calls is not that of the screen. Calls follow the shape of the dose curve; as a rule, active = well fitted inhibition curve with a large enough effect; inconclusive = small, poorly fitted or top-dose-only effect, or effect the other way; inactive = no such curve, though single readings can be large or run the other way. Where the call is inconclusive, the potency comes from a doubtful curve fit.

Protein sequences, listed by entry. Tags and fused reporters are not part of them. Lines headed by an entry give the natural chain unless they say otherwise; changes in a name come on top.
UniProt P51450: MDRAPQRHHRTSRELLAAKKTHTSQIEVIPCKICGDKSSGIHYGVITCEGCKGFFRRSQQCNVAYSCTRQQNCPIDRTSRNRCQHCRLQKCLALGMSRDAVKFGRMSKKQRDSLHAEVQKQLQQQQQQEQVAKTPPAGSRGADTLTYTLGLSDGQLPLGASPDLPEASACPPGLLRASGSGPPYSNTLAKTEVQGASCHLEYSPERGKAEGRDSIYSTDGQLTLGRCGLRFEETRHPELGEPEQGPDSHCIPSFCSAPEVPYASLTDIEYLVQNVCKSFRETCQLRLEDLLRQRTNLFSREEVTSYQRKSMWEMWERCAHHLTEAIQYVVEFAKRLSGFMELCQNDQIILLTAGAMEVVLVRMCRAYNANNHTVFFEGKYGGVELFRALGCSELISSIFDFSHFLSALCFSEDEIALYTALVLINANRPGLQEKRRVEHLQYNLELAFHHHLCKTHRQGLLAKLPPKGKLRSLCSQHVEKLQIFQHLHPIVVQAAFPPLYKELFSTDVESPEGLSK

biological target: Nuclear receptor ROR-gamma (Mus musculus) (UniProt P51450); experiment: qHTS for inhibitors of ROR gamma transcriptional activity; conditions: Drosophila S2 Gal4-RORgamma UAS-luciferase reporter, 20 h; activity change, negative = inhibition: at 53.6 µM (top of the series); also: nearly all actives have a fitted effect of over 60% in size
How it was run: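 ROR gamma transcriptional activity was tracked as Gal4-UAS luciferase output in stably transfected Drosophila Schneider cells, with compound added 1 hr before 700 uM copper sulfate induction and a 20 hr ambient-temperature incubation.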
% is scaled to controls: 0 for no effect and ±100 for the full control effect; potency is read from the fitted curve at half-maximal effect.

SMILES | Potency | activity change, negative = inhibition
Fc1ccc(F)c(NC(=S)NCCc2ccccc2)c1 | active: 4.47 µM | 
COc1ccc(C(C(=O)OC(C)CN(C)C)c2ccccc2)cc1 (stereo unspecified) |  | inactive: -14.4%
COc1ccc(C(c2nnnn2C(C)(C)C)N2CCN(c3nc4ccccc4s3)CC2)cc1 (stereo unspecified) | inconclusive: 35.5 µM [inhibitor, single point] | 
NC(=O)COc1cc2oc(=O)c3c(c2cc1Cl)CCCC3 |  | inactive: 8.03%
COC(CNC(=O)c1ccc(N2CCC3(CC2)OCCO3)c([N+](=O)[O-])c1)OC |  | inactive: 19.1%
Cc1ccc(-c2nnc(SCCC(=O)N3CCOCC3)o2)cc1 | active: 6.31 µM | 
O=C(CCc1ccccc1)Nc1ccc2c(c1)C(=O)OC2 | inconclusive: 14.1 µM [activator, partial curve] | 
CCOCCCNC(=O)/C(C#N)=C/c1ccc(C)o1 | inconclusive: 11.2 µM [inhibitor, single point] | 
COc1cc(SC)ccc1C(=O)Nc1nccs1 | active: 7.94 µM | 
O=C(CCCn1c(=O)oc2ccccc21)Nc1cccnc1 | inconclusive: 0.891 µM [inhibitor, full curve, poor fit] | 
CC(=O)c1c(N2CCN(c3cccc(Cl)c3)CC2)nc(=S)n(-c2ccccc2)c1C | active: 20 µM | 
COc1ccccc1NS(=O)(=O)c1ccc2oc(SCc3ccc(F)cc3)nc2c1 | inconclusive: 5.01 µM [activator, single point] | 
Cn1c(=O)c2c(ncn2CC(O)CNc2ccc(Cl)cc2)n(C)c1=O (stereo unspecified) | inconclusive: 11.2 µM [activator, single point] | 
CC(C)(C)c1ccc(Oc2ccc(NC(=O)c3ccco3)cn2)cc1 | inconclusive: 1.26 µM [activator, partial curve, poor fit] | 
CCOc1ccc2nc(N3CCC(C(=O)N4CCN(C(=O)c5ccco5)CC4)CC3)sc2c1 | inconclusive: 35.5 µM [activator, single point] | 
CC1=NN(C(N)=S)C(=O)C1N=Nc1ccccc1C (stereo unspecified) | active: 0.1 µM | 
Cc1ccccc1NC(=O)N1CCCC1C(=O)NCc1cccs1 (stereo unspecified) |  | inactive: 18.3%
CC(C)(C)c1ccc(OCc2ccc(C(=O)N3CCOCC3)o2)cc1 | inconclusive: 35.5 µM [inhibitor, single point] | 
O=C(CSCC(=O)N1CCCc2ccccc21)Nc1nc(-c2ccccc2)cs1 |  | inactive: 38.5%
Cc1cccc(C(=O)N[C@H](C(=O)Nc2nc3ccccc3[nH]2)C(C)C)c1 | inconclusive: 12.6 µM [inhibitor, single point] | 
CCCn1nnc(NC(=O)c2cc3ccccc3o2)n1 | inconclusive: 3.98 µM [activator, partial curve, poor fit] | 
CCn1c2ccccc2c2cc(/C=N/NC(=O)c3ccncc3)ccc21 | active: 8.91 µM | 
CCOC(=O)CSc1nnc2n1C(C)(C)Cc1ccccc1-2 |  | inactive: -16.7%
Cc1oc2c(cc(NS(=O)(=O)c3ccc4c5c(cccc35)C(=O)N4)c3ccccc32)c1C(=O)OC(C)C |  | inactive: 0.19%
Cc1ccc(-n2c(C)cc(C(=O)CN3CCOCC3)c2C)cc1C | inconclusive: 0.355 µM [activator, full curve] | 
CC1CN(S(=O)(=O)c2ccc(C(=O)NCCCn3ccnc3)cc2)CC(C)O1 (stereo unspecified) |  | inactive: 19.3%

SMILES | Potency | activity change, negative = inhibition
O=C1CC(c2ccc(F)cc2)c2cc3c(cc2N1)CCC3 (stereo unspecified) | inconclusive: 20 µM [activator, single point] | 
CC(C)OCc1c(C(=O)Nc2nccs2)oc2ccccc12 | inconclusive: 15.8 µM [inhibitor, single point] | 
COc1cccc(NC(=O)CCN2CCC(C(N)=O)CC2)c1 | inconclusive: 7.94 µM [activator, partial curve] | 
CCn1c(O)c(/C=N/N=C/c2ccc(OC)cc2)c2cc(C3=NNC(=O)CC3)ccc21 |  | inactive: -0.91%
Cc1c(/C=N\NC(=O)c2csc3ccccc23)cnn1C | inconclusive: 25.1 µM [inhibitor, single point] | 
Cc1ccccc1NC(=O)CCN1CCN(Cc2ccccc2)CC1 |  | inactive: -26.3%
O=c1[nH]c2ccc(S(=O)(=O)Nc3ccc(Br)cc3)cc2[nH]1 |  | inactive: 15%
O=C(NCc1cccs1)c1nc2c(nnn2Cc2ccccc2Cl)c(=O)[nH]1 | active: 10 µM | 
COc1ccc2cc3cc(C(=O)NCc4ccc5c(c4)OCO5)oc3nc2c1 |  | inactive: 8.87%
O=C(Nc1ccccc1)C1COc2ccccc2O1 (stereo unspecified) |  | inactive: 33.8%
CCCC(=O)N1CCN(c2ccc(NC(=S)NC(=O)CC)cc2)CC1 | inconclusive: 11.2 µM [inhibitor, partial curve] | 
COc1ccc(NC(=O)CSc2nnc(-c3cccc(O)c3)o2)cc1 |  | inactive: -35.5%
CC(=O)N/C(=C\c1ccccc1)C(=O)OCc1ccc(F)cc1 | inconclusive: 25.1 µM [activator, single point] | 
O=C(Nc1ccc(Br)cc1)c1cccc(S(=O)(=O)Nc2cnc3ccccc3c2)c1 | inconclusive: 11.2 µM [activator, partial curve] | 
CC(Oc1ccccc1)C(=O)N1CCN=C1SCc1ccccc1 (stereo unspecified) |  | inactive: -19.7%
O=C(Cn1nnc2ccccc21)N/N=C\c1cccs1 | inconclusive: 35.5 µM [inhibitor, single point] | 
Cc1ccc(NC(=O)CCl)cc1S(=O)(=O)N1CCCCCC1 | active: 11.2 µM | 
COc1ccc(C2=NS(=O)(=O)N(C)C(C(=O)NCc3ccccn3)=C2)cc1OC |  | inactive: -19.1%
CC(C)COC(=O)c1cccc2c1-c1ccccc1/C2=N\O | inconclusive: 5.62 µM [activator, single point] | 
Cc1cc(=O)[nH]c(SCc2cc(=O)n3nc(C)sc3n2)n1 |  | inactive: -8.3%
COc1ccccc1C(=O)Nc1nnc(SCC(=O)NCc2ccco2)s1 | inconclusive: 22.4 µM [inhibitor, single point] | 
Cc1cc(N2CCCC2=O)ccc1S(=O)(=O)Nc1c(C)nn(C)c1C | inconclusive: 12.6 µM [activator, single point] | 
Clc1nssc1=Nc1ccc(Br)cc1 | inconclusive: 12.6 µM [inhibitor, single point] | 
Cc1ccc(S(=O)(=O)N2CCN(S(=O)(=O)N3CCCCCC3)CC2)cc1 |  | inactive: -13.5%
Cc1ccc(C2=NC(C)(C)NC2=O)cc1 |  | inactive: -10.2%
CCC/C(O)=C1\C(=O)CC(c2ccccc2)CC1=NCCc1c(C)[nH]c2ccccc12 (stereo unspecified) | inconclusive: 15.8 µM [activator, single point] | 

SMILES | Potency | activity change, negative = inhibition
O=C(CSC1=NC2(CCCCCC2)N=C1c1ccccc1)Nc1ccc2c(c1)OCCO2 | inconclusive: 25.1 µM [activator, single point] | 
CC(C)c1c(O)ccc2c1CCC1C(C)(C)CCC[C@@]21C (stereo partly specified) | inconclusive: 35.5 µM [inhibitor, single point] | 
O=C(Nc1ccccc1)c1ccc(-c2ccccc2C(F)(F)F)o1 | inconclusive: 20 µM [activator, single point] | 
Cc1cc(C)nc(NC(=O)/C=C/c2ccccc2Cl)n1 | inconclusive: 14.1 µM [activator, single point] | 
S=c1[nH]cnc2scc(-c3ccccc3)c12 | active: 0.501 µM | 
O=C1Cc2ccccc2Sc2c(OCCN3CCCCC3)cccc21 |  | inactive: 15.3%
O=c1oc(-c2ccc(C(F)(F)F)cc2)nn1Cc1cc(Cl)ccc1O | inconclusive: 35.5 µM [inhibitor, single point] | 
CC(=O)NNC(=O)c1csc(Cc2c(Cl)sc3ccc(Cl)cc23)n1 | inconclusive: 25.1 µM [inhibitor, single point] | 
c1ccc2c(c1)OCC(CNc1ncnc3nc[nH]c13)O2 (stereo unspecified) | inconclusive: 8.91 µM [activator, partial curve] | 
Cc1ccc(C(c2nnnn2CS(=O)(=O)c2ccc(C)cc2)N2CCN(c3ncccn3)CC2)cc1 (stereo unspecified) | inconclusive: 12.6 µM [activator, single point] | 
CCc1ccc(N2C(=O)C(Cl)=C(N3CCCCCC3)C2=O)cc1 | inconclusive: 8.91 µM [activator, partial curve, poor fit] | 
Cc1cccc(Nc2nnc(SCC(=O)NC3CCCc4ccccc43)s2)c1 (stereo unspecified) | inconclusive: 35.5 µM [activator, single point] | 
C[C@@H]1CC[C@]2(O[C@@H](CCO)C[C@H](O)[C@H]2O)O1 | inconclusive: 0.316 µM [inhibitor, full curve, poor fit] | 
CSc1ccccc1OCc1cc(C(=O)NCCc2nc(C)cc(C)n2)no1 |  | inactive: 19.2%
CC1CCN(S(=O)(=O)c2ccc3c(c2)N(CC(=O)NCCCN(Cc2ccccc2)C(C)C)C(=O)CO3)CC1 | inconclusive: 1.78 µM [inhibitor, partial curve] | 
CC1(C)CN=C(N(C(=O)Nc2ccccc2)c2ccccc2F)S1 |  | inactive: -0.597%
CCOc1ccc(Cn2nnc(C(=O)NCc3ccccc3)c2N)cc1 | inconclusive: 35.5 µM [inhibitor, single point] | 
COc1cccc([C@@H]2Oc3ccc(OC)cc3C[C@H]2OC(=O)Nc2ccc(OC(F)F)cc2)c1 | inconclusive: 2.24 µM [activator, single point] | 
Cc1ccc(C)c(NC(=S)NC(NC(=O)OCc2ccccc2)C(Cl)(Cl)Cl)c1 (stereo unspecified) | active: 14.1 µM | 
O=C(CCN1CCOCC1)NNC(=S)NC(=O)c1ccccc1 | active: 14.1 µM | 
COc1cc(CNC(=O)c2nc(Cn3nc(C)c(Br)c3C)no2)cc(OC)c1 |  | inactive: -4.07%
CC1CCN(CC(=O)NC2CCCCC2)CC1 | inconclusive: 0.0794 µM [activator, partial curve] | 
CC(=O)Nc1c(NC(C)C)c2ccccc2oc1=O |  | inactive: 1.85%
C/C(CC(=O)NC1CCCC1)=N\NC(=O)C1CCCCC1 | active: 15.8 µM | 

Laid out differently: results already given
CC1CCN(CC(=O)NC2CCCCC2)CC1
  Potency: inconclusive: 0.0794 µM [activator, partial curve]
CC(=O)Nc1c(NC(C)C)c2ccccc2oc1=O
  activity change, negative = inhibition: inactive: 1.85%
C/C(CC(=O)NC1CCCC1)=N\NC(=O)C1CCCCC1
  Potency: active: 15.8 µM
